# According to PubChem BioAssay AID504467 (National Center for Advancing Translational Sciences (NCATS), 2011):
# The whole screen tested about 330,000 compounds, of which about 7,700 (2.3%) were called active. Inconclusive results, whose numbers are uncertain, are shown with a selection of clear calls. Calls come from the whole dose curve; as a rule, active = well fitted inhibition curve with a large enough effect; inconclusive = small, poorly fitted or top-dose-only effect, or effect the other way; inactive = flat fitted curve, though single readings scatter. Potencies of inconclusive entries are doubtful fits and often do not repeat.
# Assay: qHTS screen for small molecules that inhibit ELG1-dependent DNA repair in human embryonic kidney (HEK293T) cells expressing luciferase-tagged ELG1; note: nearly all actives have a fitted effect of over 55% in size
# Conditions: HEK293T ELG1-luciferase reporter, luminescence, 16 h, DNA damage induced by 5-fluorouridine; activity change, negative = inhibition: at 46.1 µM (top of the series)
# Method in brief: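 DMSO vehicle served as the neutral condition. Each well held 2,000 cells given 5-fluorouridine plus compound; after 16 hr at 37 °C/5% CO2, ONE-Glo was added and luciferase measured 30 min later.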
# % is set by controls: 0 for no effect and ±100 for the full control effect; potency is the fitted concentration of half-maximal effect.
SMILES,"activity change, negative = inhibition",Potency
O=C(Nc1ccccc1)c1cccc(S(=O)(=O)NC2CCCC2)c1,inactive: -20.5%,–
CN(C)c1ccc(C(=O)OCC(=O)c2cccs2)cc1,–,"inconclusive: 6.51 µM [activator, partial curve]"
CCc1cccc(NS(=O)(=O)c2ccc3c(c2)NC(=O)CO3)c1,inactive: -0.916%,–
CN1CCN(c2ccc(NC(=O)c3ccc(C(F)(F)F)cc3)cn2)CC1,–,"inconclusive: 29.1 µM [inhibitor, single point]"
O=C(NCCSc1c[nH]c2ccccc12)c1ccc(Br)o1,inactive: -12.9%,–
COc1cc2c(cc1OC)CN(CC(=O)Nc1ccc(C)c(C)c1)CC2,–,"inconclusive: 16.4 µM [inhibitor, partial curve, poor fit]"
Cc1ccc(S(=O)(=O)N2CCOC23CCN(C(=O)c2cc(Cl)ccc2Cl)CC3)cc1,–,"inconclusive: 23.1 µM [inhibitor, single point]"
CC1=C/C(=N\NC(=O)c2cccs2)CC(C)(C)C1,inactive: -25.6%,–
CC1CCN(C2=NC(=O)/C(=C/c3ccc(O)cc3)S2)CC1,–,"inconclusive: 1.83 µM [inhibitor, partial curve, poor fit]"
COc1ccc2ccccc2c1C1CC(=O)N2CN(Cc3ccco3)CSC2=C1C#N (centres undefined),inactive: -5.08%,–
COCC(C)n1c(SCc2ccc(OC)c(F)c2)nc2ccccc2c1=O (centres undefined),–,"inconclusive: 0.58 µM [activator, partial curve, poor fit]"
CCOC(=O)c1cc2c(nc1N)CC(C)(CC)OC2 (centres undefined),–,"inconclusive: 18.4 µM [activator, partial curve]"
O=C(Nc1cccc([N+](=O)[O-])c1)c1ccc(CN2CCOCC2)cc1,inactive: 4.34%,–
COc1cc(CNC(=O)c2cc(C(=O)NCc3cc(OC)cc(OC)c3)n(C)n2)cc(OC)c1,–,active: 20.6 µM
Cc1ccc(OCCn2cnc3c2c(=O)n(C)c(=O)n3C)cc1,inactive: -8.06%,–
CC(C)N1CC=C2C(C#N)=C(N)C(C#N)(C#N)[C@H](c3ccoc3)[C@H]2C1,inactive: 12.3%,–
Cc1cc(N/N=C/c2ccc(O)cc2O)nc(N2CCOCC2)n1,–,"inconclusive: 3.26 µM [activator, partial curve]"
O=c1[nH]c(SCc2nc3ccccc3c(=O)n2-c2ccccc2)nc2ccccc12,–,"inconclusive: 9.2 µM [inhibitor, partial curve]"
Cc1c(C(=O)Nc2ccccc2)sc2nc(-c3ccccc3)cn12,–,"inconclusive: 20.6 µM [inhibitor, single point]"
Cc1ccc2c(CN3CCC(C)CC3)cc(=O)oc2c1C,–,"inconclusive: 16.4 µM [activator, partial curve]"
COCc1cc(=O)n2[nH]c(-c3ccccc3)cc2n1,–,"inconclusive: 29.1 µM [activator, single point]"
Clc1cc(Cl)c2nc(N3CCCCC3)sc2c1,–,"inconclusive: 9.2 µM [activator, partial curve]"
Cc1cc(C)cc(NC(=O)CSc2nnc(-c3ccccc3C)o2)c1,inactive: 2.09%,–

SMILES,"activity change, negative = inhibition",Potency
C/C(=N\Nc1cc(C)nc(-c2ccccc2O)n1)c1ccccc1O,–,"inconclusive: 29.1 µM [inhibitor, single point]"
CN(C)C(=O)c1ccc(NC(=O)c2cccc(S(=O)(=O)N3CCCc4ccccc43)c2)cc1,–,"inconclusive: 25.9 µM [inhibitor, single point]"
CC1Cn2c(nnc2-c2cccc(Cl)c2)S1 (centres undefined),inactive: -3.8%,–
Cc1ccc(-n2nc3c(c2NC(=O)C(C)C)CS(=O)(=O)C3)cc1,inactive: 6.39%,–
O=c1cc(CSc2nnc(-c3cccs3)n2Cc2ccccc2)nc2sc3ccccc3n12,–,"inconclusive: 3.26 µM [inhibitor, single point]"
CN(C)CC(CCC(CN(C)C)C(=O)c1ccccc1)C(=O)c1ccccc1 (centres undefined),–,"inconclusive: 29.1 µM [inhibitor, single point]"
Cc1cc(NC(=O)c2nn(C)c(C)c2Br)no1,–,"inconclusive: 20.6 µM [activator, partial curve]"
CCc1cccc(CC)c1NC(=O)CCCSc1nc2ccccc2s1,–,"inconclusive: 13 µM [inhibitor, partial curve]"
O=C(COc1ccccc1)N1CCN(C(=O)c2cccs2)CC1,inactive: -17.5%,–
OC(CNC1CCCCCC1)COc1cccc2ccccc12 (centres undefined),inactive: 4.54%,–
COc1ccc(-n2c(C)cc(C(=O)Cn3c(NCCO)nc4ccccc43)c2C)cc1,inactive: -5.11%,–
Cc1ccc2cc(CN(Cc3ccc4c(c3)OCO4)Cc3nnnn3Cc3ccco3)c(=O)[nH]c2c1,–,"inconclusive: 20.6 µM [inhibitor, single point]"
COc1ccc(-c2cc(C)no2)cc1S(=O)(=O)NCCCN1CCN(c2ccccc2)CC1,–,"inconclusive: 13 µM [inhibitor, partial curve]"
c1ccc(Cn2c(-c3cncs3)nc3ccccc32)cc1,–,"inconclusive: 18.4 µM [activator, partial curve]"
O=C(COc1ccc2ccccc2c1)Nc1nc2ccccc2[nH]1,–,"inconclusive: 18.4 µM [activator, partial curve, poor fit]"
O=C1CCC(C(=O)OCc2nnc(-c3ccc(Cl)cc3)o2)=NN1,–,"inconclusive: 1.16 µM [activator, partial curve]"
COc1ccc(-c2nnc(-c3cccnc3)o2)cc1,–,"inconclusive: 14.6 µM [activator, partial curve]"
Nc1nonc1-c1noc(CCCOc2ccc(Cl)cc2Cl)n1,–,"inconclusive: 14.6 µM [activator, partial curve, poor fit]"
CC(C)[C@H](NC(=O)OC(C)(C)C)c1nnc(SCc2cccc(F)c2)o1,inactive: -16.3%,–
O=[N+]([O-])c1nn(-c2ccccc2)n(O)c1=NC1CCN(Cc2ccccc2)CC1,–,"inconclusive: 9.2 µM [inhibitor, partial curve]"
Cc1ccc(-c2nnc(N3CCOCC3)c3ccccc23)cc1S(=O)(=O)NCC1CCCO1 (centres undefined),–,"inconclusive: 20 µM [inhibitor, single point]"
CC(C(=O)N1CCN(C2c3ccccc3-c3ccccc32)CC1)N1C(=O)c2ccccc2C1=O (centres undefined),–,"inconclusive: 29.1 µM [inhibitor, single point]"

SMILES,"activity change, negative = inhibition",Potency
Cc1cc(N2CCN(C(=O)c3ccco3)CC2)n2ncnc2n1,inactive: 11.5%,–
Cc1ccccc1N(C(=O)c1snc(C(N)=O)c1N)C(C(=O)NC1CCCC1)c1ccco1 (centres undefined),inactive: -4.67%,–
Cc1cc(C)nc(NC(=O)Nc2ccccc2C(F)(F)F)n1,–,"inconclusive: 1.16 µM [inhibitor, single point]"
O=C(N/N=C/c1ccc(Cl)cc1Cl)Nc1ccccc1,–,"inconclusive: 11.6 µM [activator, partial curve]"
Cc1ccc(C)c2[nH]c(=O)c(CCNC(=O)c3ccc(S(=O)(=O)N4CCCC4)cc3)cc12,–,"inconclusive: 29.1 µM [inhibitor, single point]"
Cc1cc(C)c2nc(SCC(=O)N3CC(=O)Nc4ccccc43)c(C#N)cc2c1,–,"inconclusive: 29.1 µM [inhibitor, single point]"
CCOC(=O)NC(C(Cl)(Cl)Cl)S(=O)(=O)c1ccccc1 (centres undefined),–,"inconclusive: 20.6 µM [activator, partial curve]"
Cc1ccc(/C=N/Nc2ccc3ccccc3n2)o1,–,"inconclusive: 0.517 µM [activator, full curve]"
Cc1cc(C)c(C)c(N=Nc2nc3ccccc3n2C)c1C,–,"inconclusive: 3.66 µM [activator, partial curve]"
COc1cccc(CNC(=O)c2cc(S(=O)(=O)N3CCOCC3)cn2C)c1,inactive: 17.9%,–
S=C(Nc1nc2c(s1)CCCC2)NC1CC1,–,"inconclusive: 16.4 µM [activator, partial curve]"
Cc1ccc(C(=O)NCCSC(C)(C)C)cc1,–,"inconclusive: 1.84 µM [activator, full curve]"
O=C(c1cccc(Cl)c1)N1CCN(S(=O)(=O)c2ccc(Cl)s2)CC1,inactive: -17.2%,–
O=C(Nc1c(C(=O)Nc2cccc3ccccc23)cnn1-c1ccccc1)c1ccco1,–,"inconclusive: 6.51 µM [inhibitor, partial curve, poor fit]"
Cc1cc(-c2n[nH]c(=S)n2/N=C/c2cccs2)n[nH]1,–,"inconclusive: 20.6 µM [activator, single point]"
COc1ccc(Oc2cc(C)c3ccccc3n2)cc1,–,"inconclusive: 20.6 µM [activator, single point]"
COc1ccc(CN2C(=O)c3ccccc3C2C(=O)NC2CCCC(C)C2C)c(OC)c1 (centres undefined),–,"inconclusive: 20.6 µM [inhibitor, partial curve, poor fit]"
CS(=O)(=O)N(CC(=O)Nc1ccc2c(c1)OCO2)c1ccc(Cl)cc1,–,"inconclusive: 29.1 µM [activator, single point]"
Cc1ccnc(NC(=O)Nc2ccc3c(c2)N(C)C(=O)CS3)c1,–,"inconclusive: 2.31 µM [activator, partial curve]"
Cn1c(=O)c2c(nc(Sc3ncccn3)n2Cc2ccccc2Cl)n(C)c1=O,–,"inconclusive: 20.6 µM [inhibitor, single point]"
CC(C)CN(CC(C)C)C(=O)c1cccc(S(=O)(=O)N2CCc3ccccc32)c1,–,"inconclusive: 29.1 µM [inhibitor, single point]"
CN(C)c1ccc(-c2nnn(CC(=O)Nc3ccccc3N3CCOCC3)n2)cc1,–,active: 14.6 µM
CC(=O)Oc1ccc2c(C)c(CC(=O)N3CCN(C(=O)C4COc5ccccc5O4)CC3)c(=O)oc2c1C (centres undefined),–,"inconclusive: 2.31 µM [inhibitor, full curve, poor fit]"

# Reformatted tab-delimited: two of the compounds above.
SMILES	activity change, negative = inhibition	Potency
Cc1ccc(/C=N/Nc2ccc3ccccc3n2)o1	–	inconclusive: 0.517 µM [activator, full curve]
CN(C)c1ccc(-c2nnn(CC(=O)Nc3ccccc3N3CCOCC3)n2)cc1	–	active: 14.6 µM
